In patent US6015881 (dated 2000):

Assay: general procedure: hybrid (solid and solution phase) peptide synthesis; 2-chlorotrityl chloride resin (super acid sensitive); HBTU/HOBT/DIEA (solid phase); HBTU/HOAT/EtPr2N (solution phase)

Substance | step yield (coupling step) [%] | crude HPLC purity (coupling step) [A %] | final HPLC purity (coupling step) | step yield (late stage modification step) [%] | crude HPLC purity (late stage modification step) [%]
Fmoc-Asp(tBu)-Lys(Boc)-Trp(Boc)-Ala-Ser(tBu)-Leu-Trp(Boc)-Asn(trt)-Trp(Boc)-Phe-NH2 | 100 | 93 |  |  | 
Fmoc-Glu(OtBu)-Lys(Boc)-Asn(trt)-Glu(OtBu)-Gln(trt)- Glu(OtBu)-Leu-Leu-Glu(OtBu)-Leu-Asp(tBu)-Lys(Boc)-Trp(Boc)-Ala-Ser(tBu)-Leu-Trp(Boc)-Asn(trt)-Trp(Boc)-Phe-NH2 | 90 |  | 95.5 A % |  | 
Fmoc-Ile-Glu(OtBu)-Glu(OtBu)-Ser(tBu)-Gln(trt)-Asn(trt)-Gln(trt)-Gln-OPNB | 100 |  | 91-94% |  | 
Fmoc-Tyr(tBu)-Thr(tBu)-Ser(tBu)-Leu-Ile-His(trt)-Ser(tBu)-Leu-Ile-Glu(OtBu)-Glu(OtBu)-Ser(tBu)-Gln(trt)-Asn(trt)-Gln(trt)-Gln-OPNB | 92 |  | 90 A % |  | 
H-Asp(tBu)-Lys(Boc)-Trp(Boc)-Ala-Ser(tBu)-Leu-Trp(Boc)-Asn(trt)-Trp(Boc)-NH2 |  |  |  | 89.6 | 95
